Experimental findings from publication PMC4823034 are described below.

By UniProt entry, the sequences of proteins in these tests, tags left out.
UniProt P38398: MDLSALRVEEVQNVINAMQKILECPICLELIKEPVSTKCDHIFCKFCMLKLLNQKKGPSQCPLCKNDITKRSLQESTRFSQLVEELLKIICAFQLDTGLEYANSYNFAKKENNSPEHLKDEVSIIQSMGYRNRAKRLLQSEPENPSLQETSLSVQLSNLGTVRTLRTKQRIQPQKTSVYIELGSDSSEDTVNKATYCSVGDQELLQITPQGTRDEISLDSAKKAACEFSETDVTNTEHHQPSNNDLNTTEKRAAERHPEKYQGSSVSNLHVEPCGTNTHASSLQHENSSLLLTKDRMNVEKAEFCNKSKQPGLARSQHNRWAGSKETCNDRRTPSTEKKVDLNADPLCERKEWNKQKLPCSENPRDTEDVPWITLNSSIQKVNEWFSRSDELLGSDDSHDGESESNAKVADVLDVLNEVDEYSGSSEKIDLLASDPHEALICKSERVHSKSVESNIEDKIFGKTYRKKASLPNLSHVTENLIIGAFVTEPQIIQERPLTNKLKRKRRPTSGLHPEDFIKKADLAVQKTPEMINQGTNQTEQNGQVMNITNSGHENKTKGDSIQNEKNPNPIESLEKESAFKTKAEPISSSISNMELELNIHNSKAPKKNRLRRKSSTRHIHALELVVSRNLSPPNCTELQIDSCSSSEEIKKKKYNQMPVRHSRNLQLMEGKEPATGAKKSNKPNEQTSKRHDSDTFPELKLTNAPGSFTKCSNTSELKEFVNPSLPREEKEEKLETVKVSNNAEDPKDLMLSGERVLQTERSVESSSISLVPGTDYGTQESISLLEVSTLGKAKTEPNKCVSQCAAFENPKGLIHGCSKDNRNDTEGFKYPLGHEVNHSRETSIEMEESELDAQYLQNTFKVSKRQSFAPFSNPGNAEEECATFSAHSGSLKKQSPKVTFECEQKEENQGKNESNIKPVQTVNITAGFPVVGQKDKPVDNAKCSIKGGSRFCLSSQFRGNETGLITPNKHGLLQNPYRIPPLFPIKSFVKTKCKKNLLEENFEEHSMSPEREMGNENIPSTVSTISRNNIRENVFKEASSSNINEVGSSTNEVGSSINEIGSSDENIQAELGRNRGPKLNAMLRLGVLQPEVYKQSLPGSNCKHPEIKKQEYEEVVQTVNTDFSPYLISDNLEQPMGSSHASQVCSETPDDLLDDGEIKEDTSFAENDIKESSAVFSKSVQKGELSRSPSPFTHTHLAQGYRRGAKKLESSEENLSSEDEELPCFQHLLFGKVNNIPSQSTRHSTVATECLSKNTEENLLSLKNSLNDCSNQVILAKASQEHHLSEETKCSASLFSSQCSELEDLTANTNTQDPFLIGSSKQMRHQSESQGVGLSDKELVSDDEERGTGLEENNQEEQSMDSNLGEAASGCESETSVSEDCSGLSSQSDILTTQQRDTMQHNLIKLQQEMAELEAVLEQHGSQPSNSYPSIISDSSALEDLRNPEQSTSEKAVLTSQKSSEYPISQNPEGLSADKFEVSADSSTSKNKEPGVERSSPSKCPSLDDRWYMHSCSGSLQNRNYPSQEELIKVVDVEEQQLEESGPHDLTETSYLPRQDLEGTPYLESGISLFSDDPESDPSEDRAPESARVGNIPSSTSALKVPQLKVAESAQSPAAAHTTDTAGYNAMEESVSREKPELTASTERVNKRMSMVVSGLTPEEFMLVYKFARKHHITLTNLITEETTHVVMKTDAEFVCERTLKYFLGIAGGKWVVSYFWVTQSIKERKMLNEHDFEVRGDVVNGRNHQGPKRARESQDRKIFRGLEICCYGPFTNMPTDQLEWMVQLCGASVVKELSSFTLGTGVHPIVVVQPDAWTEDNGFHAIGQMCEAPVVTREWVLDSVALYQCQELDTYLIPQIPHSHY
UniProt P53350: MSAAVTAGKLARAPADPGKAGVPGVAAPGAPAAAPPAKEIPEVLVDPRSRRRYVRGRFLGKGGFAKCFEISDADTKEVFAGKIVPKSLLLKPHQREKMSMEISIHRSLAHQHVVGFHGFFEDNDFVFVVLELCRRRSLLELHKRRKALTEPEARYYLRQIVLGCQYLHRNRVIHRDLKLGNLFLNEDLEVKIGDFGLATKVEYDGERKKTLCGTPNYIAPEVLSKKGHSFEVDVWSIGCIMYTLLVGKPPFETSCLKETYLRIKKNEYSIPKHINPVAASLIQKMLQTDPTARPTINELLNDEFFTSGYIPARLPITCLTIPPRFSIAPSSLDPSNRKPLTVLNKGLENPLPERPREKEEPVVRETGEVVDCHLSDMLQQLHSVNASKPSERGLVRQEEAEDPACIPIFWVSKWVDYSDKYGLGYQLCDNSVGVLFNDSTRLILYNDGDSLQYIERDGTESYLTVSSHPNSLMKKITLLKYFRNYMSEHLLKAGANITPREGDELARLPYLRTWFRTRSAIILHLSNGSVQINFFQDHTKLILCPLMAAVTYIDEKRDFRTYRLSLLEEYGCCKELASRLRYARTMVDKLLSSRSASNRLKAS

No constants are given. Whether binding was seen depends on the method and setting. In cells and extracts the contact can be indirect. Some results given as binding are weak or reduced against the parent protein; the word gives no strength.

For test [1], the target named is BRCA1 (human (endogenous in HeLa and MCF-7)) (UniProt P38398). Description: co-IP; whole-cell extracts of undamaged MCF-7 cells; antibodies against either protein, protein A-sepharose, immunoblot. In general terms: In western blotting, separated proteins are transferred to a membrane and probed.
For test [2] the target is unchanged. Description: condition: only cells treated with RO-3306 (CDK1 inhibitor) for 4 h; co-IP; whole-cell extracts of HeLa cells treated with 10 uM RO-3306 (CDK1 inhibitor) for 4 h; IP with anti-BRCA1 antibody, protein A-sepharose, immunoblot with anti-BRCA1 and anti-Plk1.
The target is the same in test [3]. Description: co-IP; whole-cell extracts of asynchronous HeLa cells, untreated or treated with calicheamicin (CLM) for 1 h; IP with anti-BRCA1 or anti-Plk1 antibody at 4°C overnight, protein A-sepharose, immunoblot with anti-BRCA1 and anti-Plk1; control IP without antibody.

Take “Polo-like kinase 1 (from UniProt P53350 1-603) (enzyme)”: the binding result in test [1] is reported as “binds”; in test [2], “no binding”; in test [3], “binds”.
